The values below come from publication PMC7862700.

The list shows a part of the results, in another mix than the full data. At the low end of the ranking, values are background and their order means little.

The target of the experiment is T1, ETV3 (UniProt P41162-2).
T1 sequence: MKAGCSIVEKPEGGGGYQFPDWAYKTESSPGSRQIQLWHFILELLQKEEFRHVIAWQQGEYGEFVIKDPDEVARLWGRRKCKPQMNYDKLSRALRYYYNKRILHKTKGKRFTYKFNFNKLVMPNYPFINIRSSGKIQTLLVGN
Nature of the experiment: DAPPL (digital affinity profiling via proximity ligation, sequencing). The note with it: 10 mM Tris-HCl pH 7.5, 50 mM NaCl, 1 mM DTT, 4% glycerol, room temperature, 30 min; GST-TFs on glutathione beads, 16-mer random dsDNA library, 0.1% …; high values mean tight binding; double strand, one strand shown; scale: fold enrichment (6-mer frequency, TF over GST control).
Take AAGAGT: the binding signal came out at 0.852. Regarding GAGGCT, the binding signal stood at 0.615. The same measure for GAGGAT: 0.62; for AGTCCG: 0.648; for GACGTA: 0.728. As to AACAGT, the binding signal worked out at 0.739. In the case of AGTTCA it was 0.915; in that of CGGGAT, 0.624.

Sequence GGCATC gave a binding signal of 0.946. In the case of GGAGCT it was 0.598; in that of GCACGG, 0.854; in that of CACGTG, 0.577. Take AAGACA: the binding signal stood at 0.99. For GTGGAC, the binding signal is 0.875. In the case of GAGCCG it was 0.437. In turn, GCCGTT registered a binding signal of 0.805.

The sequence GAGTTT returned a binding signal of 0.623. In the case of GGTGAT it was 0.814. The same measure for GGGATA: 0.802; for GTCGCT: 0.802. The same measure for ATCGGA: 0.438; for CGGACG: 0.46. The sequence AGAGAC gave a binding signal of 0.521. The same measure for GGTCGG: 0.259. For AGTTGA, the binding signal was found to be 0.776. For the sequence AGGGGT, the binding signal amounted to 0.796. As to CCAGAC, the binding signal stood at 0.652. Regarding GCGCGA, the binding signal turned out to be 0.703. As for ACTGAG, the binding signal was 0.781.

TGCAGG: the binding signal is 0.957. GGGGTT came in with a binding signal of 0.951. TGTCGT gave a binding signal of 0.832. In the case of CCTAGT it was 0.911.
